Consider two sequences from article PMC11872463, “Identification of a group of 9-amino-acridines that selectively downregulate regulatory T cell functions through FoxP3” (iScience, 2025).

Chains of the proteins cited; added tags and fusions are not shown. Residues count along the entry.
UniProt Q9BZS1, 182-421, stated change not applied: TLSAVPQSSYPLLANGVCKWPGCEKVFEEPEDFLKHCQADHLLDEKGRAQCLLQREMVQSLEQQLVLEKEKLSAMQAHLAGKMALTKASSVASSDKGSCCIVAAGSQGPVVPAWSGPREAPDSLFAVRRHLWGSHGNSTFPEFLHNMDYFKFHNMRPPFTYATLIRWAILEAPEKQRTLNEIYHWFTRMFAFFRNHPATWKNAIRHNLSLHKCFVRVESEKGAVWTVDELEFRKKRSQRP

For at least one entry, the source does not settle the construct or the ends of the probe. For part of these data: Weaker means in comparison with the reference protein, sequence or condition of that experiment. At least one verdict rests on a figure or table, not on a statement of the authors.

Data set [1] concerns the target His-FoxP3-ΔN (Homo sapiens) (UniProt Q9BZS1). Briefly: AlphaScreen. Conditions: 5'-biotin on strand 1, AlphaScreen: room temperature, buffer composition not stated, recombinant protein, residues 182-421, protein details: His (pET-30a), label: biotin. For orientation: Bead proximity is the source of the signal in Alpha formats.
Data set [2] shares this target. The experiment in a line: EMSA. Conditions: EMSA: 10 mM Tris pH 7.5, 100 mM KCl, 1 mM EDTA, 0.1 mM DTT, 5% glycerol, 0.010 mg/mL BSA, room temperature 30 min, recombinant protein, residues 182-421, protein details: His (pET-30a).

“TGACAGTCAGCAAGGTAAACAAGAGTAAACAAGTCCTGAGTCAGT (double strand) [AlphaScreen FoxP3 DNA]”: the IC50 is 370 nM in data set [1] (MP4, IC50 is of the compound inhibiting protein-DNA binding) and 2000 nM in data set [1] (quinacrine (QDD), IC50 is of the compound inhibiting protein-DNA binding). For the same sequence, in data set [1] (no compound, protein:DNA 2:1), the binding result is “binds”.

“AGATAAACAAGTGTAAACAAT (double strand) [DRE3]”: the binding result in data set [2] (MP4, concentration-dependent interference) is “binds more weakly”; in data set [2] (no compound, 3 ug protein, 20 nM DNA) it was “binds”; in data set [2] (quinacrine (QDD), concentration-dependent interference), “binds more weakly”.

A word on the IC50: it is the point on the concentration scale where inhibition reaches its midpoint.
